Experimental data from paper doi:10.1101/2023.01.12.523872.
Changes are numbered by the printed parent chain. These are yes or no findings as the source states them, for the method shown. In cells and extracts the contact can be indirect. For part of these data: A result given as binding can be weak or reduced; the word gives no strength. Tags and fused reporters may be left off the sequences shown.

Columns and labels:
Test in all cases: co-IP
Scs2-GFP-TM (S. pombe) = target: T1, Scs2-GFP-TM (S. pombe) (UniProt O60119)
T1 sequence: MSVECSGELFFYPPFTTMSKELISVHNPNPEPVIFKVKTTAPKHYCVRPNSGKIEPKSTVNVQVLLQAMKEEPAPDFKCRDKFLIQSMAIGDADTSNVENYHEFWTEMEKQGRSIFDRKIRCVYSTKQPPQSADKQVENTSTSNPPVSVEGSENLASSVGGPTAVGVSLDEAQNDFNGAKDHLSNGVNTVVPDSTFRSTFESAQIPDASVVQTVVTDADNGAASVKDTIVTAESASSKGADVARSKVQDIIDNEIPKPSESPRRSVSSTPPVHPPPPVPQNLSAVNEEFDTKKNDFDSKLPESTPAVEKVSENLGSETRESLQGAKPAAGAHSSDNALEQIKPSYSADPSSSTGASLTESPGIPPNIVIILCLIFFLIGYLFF

Scs22-GFP-TM (S. pombe) = target: T2, Scs22-GFP-TM (S. pombe) (UniProt Q10484)
T2 sequence: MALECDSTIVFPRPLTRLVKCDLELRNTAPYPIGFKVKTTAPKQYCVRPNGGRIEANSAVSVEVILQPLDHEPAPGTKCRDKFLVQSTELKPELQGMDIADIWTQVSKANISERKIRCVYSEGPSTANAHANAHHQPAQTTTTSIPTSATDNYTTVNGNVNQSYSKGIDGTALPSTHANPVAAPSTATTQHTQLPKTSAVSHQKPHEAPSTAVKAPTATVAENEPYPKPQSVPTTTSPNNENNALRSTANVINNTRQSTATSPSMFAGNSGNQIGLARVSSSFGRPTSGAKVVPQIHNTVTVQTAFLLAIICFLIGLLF

[1] = target: T3, Scs22^3KA-GFP-TM (S. pombe) (UniProt Q10484)
T3 sequence: T2 sequence with K36A, K38A, K43A

[2] = target: T4, Scs2^3KA-GFP-TM (S. pombe) (UniProt O60119)
T4 sequence: T1 sequence with K36A, K38A, K43A

| binding (Scs2-GFP-TM (S. pombe)) | binding (Scs22-GFP-TM (S. pombe)) | binding [1] | binding [2] | Substance |
| --- | --- | --- | --- | --- |
| binds | no binding | no binding | no binding | Pdr16, C-terminally tagged (S. pombe) |
| binds | binds |  |  | Csr102, C-terminally tagged (S. pombe) |
